Measurements published in patent publication US20240309043A1, “THERAPEUTICALLY ACTIVE STEROIDAL DERIVATIVES” (Organon R&D Finland Ltd., priority 2017, published 2024).
At least one structure is not confirmed: it was looked up by name or label, or the drawing left a doubt.

System: HSD1 enzyme that is expressed in rabbit placenta tissue
Test: Inhibition of E1 to E2 conversion in rabbit placenta tissue homogenate
Assay type: biochemical
Settings: inhibitor 100 nM, 30 nM estrone, 30 min
Method: The assay is based on an enzymatic reaction where HSD1 enzyme that is expressed in rabbit placenta tissue converts its natural substance estrone (E1) to estradiol (E2) in the presence of a co-factor β-NADPH.
Homogenization of rabbit placenta tissue: Weight a piece of the frozen tissue into a Precellys ck28 bead tube. Add buffer solution (20 mM KH2PO4 with 1 mM EDTA, pH 7,4) in 1:2 ratio (e.g. 300 mg of tissue:600 μl reaction buffer solution). Insert the bead tubes to homogenizer and homogenize 2×30 s. 6000 rpm. Centrifugated 5 min., 2600 rpm at +4° C. and collect supernatant. Aliquots of homogenate are stored in −80° C.
Assay—Inhibition of E1 to E2 conversion in rabbit placenta tissue: The reaction takes place in a buffer solution (20 mM KH2PO4 with 1 mM EDTA, pH 7,4), including appropriate amount of rabbit placenta homogenate, co-factor (1 mM β-NADPH), Substrate (30 nM estrone), labelled substrate as tracer (5 nM [^3H]-estrone). During a 30-minute incubation part of the estrone is converted to estradiol. The reaction is stopped by lowering the pH to 1 with 10% trichloro acetic acid (TCA). The substrate and conversion products are analyzed by HPLC and a Scintillation counter analyzer. Total radioactivity for estrone and estradiol were determined in each sample and percent conversion of estrone to estradiol was calculated according to the following formula:
Percent inhibition was calculated flowingly: % inhibition=100−% conversion.

Row | SMILES | Rabbit placenta inhibition % @100 nM
1 | COc1ccc(NC(=O)CC[C@@H]2C/C(=N\O)[C@@]3(C)CCC4c5cccc(F)c5CCC4C23)nn1 (stereo partly drawn) [Compound 4, 3-((13S,15R,E)-4-fluoro-17-(hydroxyimino)-13-methyl-7,8,9,11,12,13,14,15,16,17-decahydro-6H-cyclopenta[a]phenanthren-15-yl)-N-(6-methoxypyridazin-3-yl)propanamide] | 89%
2 | CN(C(=O)CC[C@@H]1C/C(=N\O)[C@@]2(C)CCC3c4cccc(F)c4CCC3C12)C1COC1 (stereo partly drawn) [Compound 12, 3-((13S,15R,E)-4-fluoro-17-(hydroxyimino)-13-methyl-7,8,9,11,12,13,14,15,16,17-decahydro-6H-cyclopenta[a]phenanthren-15-yl)-N-methyl-(oxetan-3-yl)propanamide] | 5%
3 | C[C@]12CCC3c4ccc(F)cc4CCC3C1[C@H](CCC(=O)Nc1cccnn1)C/C2=N\O (stereo partly drawn) [Compound 34, 3-((13S,15R,E)-3-fluoro-17-(hydroxyimino)-13-methyl-7,8,9,11,12,13,14,15,16,17-decahydro-6H-cyclopenta[a]phenanthren-15-yl)-N-(pyridazin-3-yl)propanamide] | 16%
4 | C[C@]12CCC3c4ccc(F)cc4CCC3C1[C@H](CCC(=O)Nc1nncs1)C/C2=N\O (stereo partly drawn) [Compound 38, 3-((13S,15R,E)-3-fluoro-17-(hydroxyimino)-13-methyl-7,8,9,11,12,13,14,15,16,17-decahydro-6H-cyclopenta[a]phenanthren-15-yl)-N-(1,3,4-thiadiazol-2-yl)propanamide] | 19%
5 | C[C@]12CCC3c4cccc(F)c4CCC3C1[C@H](CCC(=O)Nc1cc3c([nH]c1=O)CCCC3)C/C2=N\O (stereo partly drawn) [Compound 178, 3-((13S,15R,E)-4-fluoro-17-(hydroxyimino)-13-methyl-7,8,9,11,12,13,14,15,16,17-decahydro-6H-cyclopenta[a]phenanthren-15-yl)-N-(2-oxo-12,5,6,7,8-hexahydroguinolin-3-yl)propanamide] | 23%
